Article doi:10.1101/2021.05.12.443731
No constants are given. Whether binding was seen depends on the method and setting. Binding seen in cells or lysates may run through a third protein. A yes stands for co-enrichment or nearness to the bait. Other partners may have been found. For part of these data: No binding means not detected with the bait. Each block holds one molecule with its values, some of them ahead of it.

By UniProt entry, the sequences of proteins in these tests, tags left out. Residues count along the entry.
UniProt P09326, residues 27-220: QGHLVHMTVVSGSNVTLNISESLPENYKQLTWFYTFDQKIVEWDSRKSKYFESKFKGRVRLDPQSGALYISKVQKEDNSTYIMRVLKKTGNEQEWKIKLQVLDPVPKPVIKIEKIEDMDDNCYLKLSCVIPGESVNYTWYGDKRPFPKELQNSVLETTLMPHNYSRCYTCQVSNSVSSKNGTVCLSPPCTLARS
UniProt Q9UJU6: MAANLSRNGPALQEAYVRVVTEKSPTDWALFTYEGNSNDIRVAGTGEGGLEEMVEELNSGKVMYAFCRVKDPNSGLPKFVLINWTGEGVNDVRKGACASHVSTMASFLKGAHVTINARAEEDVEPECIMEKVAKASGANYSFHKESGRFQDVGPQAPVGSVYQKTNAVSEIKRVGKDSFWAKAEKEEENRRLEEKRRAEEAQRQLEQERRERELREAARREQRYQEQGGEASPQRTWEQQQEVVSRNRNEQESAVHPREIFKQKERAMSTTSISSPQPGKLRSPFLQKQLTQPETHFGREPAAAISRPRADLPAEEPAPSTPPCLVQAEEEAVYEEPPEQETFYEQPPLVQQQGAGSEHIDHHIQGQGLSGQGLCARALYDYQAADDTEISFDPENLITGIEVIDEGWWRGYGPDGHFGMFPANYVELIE
UniProt O43143: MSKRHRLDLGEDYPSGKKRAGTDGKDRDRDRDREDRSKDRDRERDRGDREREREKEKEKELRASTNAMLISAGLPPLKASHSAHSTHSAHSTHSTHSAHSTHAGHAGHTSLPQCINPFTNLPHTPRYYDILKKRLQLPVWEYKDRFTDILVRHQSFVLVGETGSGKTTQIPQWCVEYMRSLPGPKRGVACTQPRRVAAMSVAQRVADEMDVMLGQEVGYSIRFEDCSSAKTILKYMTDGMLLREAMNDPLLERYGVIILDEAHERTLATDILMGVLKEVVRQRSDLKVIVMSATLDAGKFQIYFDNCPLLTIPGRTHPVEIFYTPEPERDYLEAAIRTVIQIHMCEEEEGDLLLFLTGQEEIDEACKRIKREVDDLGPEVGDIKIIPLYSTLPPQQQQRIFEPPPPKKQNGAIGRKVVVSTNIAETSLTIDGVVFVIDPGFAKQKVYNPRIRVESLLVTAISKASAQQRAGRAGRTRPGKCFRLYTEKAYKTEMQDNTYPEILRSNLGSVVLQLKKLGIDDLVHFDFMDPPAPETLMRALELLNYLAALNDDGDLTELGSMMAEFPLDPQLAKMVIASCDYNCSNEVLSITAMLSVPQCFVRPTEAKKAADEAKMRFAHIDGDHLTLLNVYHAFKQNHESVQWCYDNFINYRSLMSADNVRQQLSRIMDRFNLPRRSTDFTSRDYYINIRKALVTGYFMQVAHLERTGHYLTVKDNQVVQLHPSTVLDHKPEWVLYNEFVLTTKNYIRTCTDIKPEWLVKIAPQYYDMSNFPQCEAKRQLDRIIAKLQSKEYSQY
UniProt P62140: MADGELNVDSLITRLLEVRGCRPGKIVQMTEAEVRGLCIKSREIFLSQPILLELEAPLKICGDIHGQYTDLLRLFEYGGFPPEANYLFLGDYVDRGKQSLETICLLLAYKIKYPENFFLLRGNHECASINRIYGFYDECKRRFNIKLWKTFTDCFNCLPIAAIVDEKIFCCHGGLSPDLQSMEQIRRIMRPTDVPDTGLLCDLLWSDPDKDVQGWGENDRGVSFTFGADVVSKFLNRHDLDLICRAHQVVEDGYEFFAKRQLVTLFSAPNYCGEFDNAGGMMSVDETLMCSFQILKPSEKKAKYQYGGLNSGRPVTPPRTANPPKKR
UniProt Q96EB6: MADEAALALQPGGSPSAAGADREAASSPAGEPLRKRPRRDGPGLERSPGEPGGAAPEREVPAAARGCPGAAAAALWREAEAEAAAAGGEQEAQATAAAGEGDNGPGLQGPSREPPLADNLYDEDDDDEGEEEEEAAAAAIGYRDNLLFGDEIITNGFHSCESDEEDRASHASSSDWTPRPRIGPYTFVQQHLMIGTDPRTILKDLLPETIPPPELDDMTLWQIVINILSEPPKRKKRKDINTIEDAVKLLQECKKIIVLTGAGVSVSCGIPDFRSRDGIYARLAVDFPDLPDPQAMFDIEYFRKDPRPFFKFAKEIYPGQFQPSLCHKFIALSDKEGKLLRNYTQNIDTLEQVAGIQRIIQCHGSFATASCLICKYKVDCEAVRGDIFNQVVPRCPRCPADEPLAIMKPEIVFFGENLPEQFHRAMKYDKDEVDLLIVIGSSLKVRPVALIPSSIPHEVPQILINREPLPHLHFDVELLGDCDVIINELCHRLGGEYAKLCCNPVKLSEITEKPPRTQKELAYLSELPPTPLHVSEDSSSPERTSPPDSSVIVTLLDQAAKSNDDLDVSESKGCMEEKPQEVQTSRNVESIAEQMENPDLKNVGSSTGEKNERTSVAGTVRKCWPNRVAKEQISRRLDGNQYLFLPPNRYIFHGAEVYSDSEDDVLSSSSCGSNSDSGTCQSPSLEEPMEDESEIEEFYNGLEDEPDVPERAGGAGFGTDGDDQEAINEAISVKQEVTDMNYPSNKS
UniProt P06730: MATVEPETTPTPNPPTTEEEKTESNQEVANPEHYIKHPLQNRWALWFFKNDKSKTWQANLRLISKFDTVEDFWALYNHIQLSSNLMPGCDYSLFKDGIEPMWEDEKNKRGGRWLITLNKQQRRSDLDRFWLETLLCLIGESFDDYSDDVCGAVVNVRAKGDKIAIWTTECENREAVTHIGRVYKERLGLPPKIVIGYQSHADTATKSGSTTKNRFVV
UniProt Q9ULV4: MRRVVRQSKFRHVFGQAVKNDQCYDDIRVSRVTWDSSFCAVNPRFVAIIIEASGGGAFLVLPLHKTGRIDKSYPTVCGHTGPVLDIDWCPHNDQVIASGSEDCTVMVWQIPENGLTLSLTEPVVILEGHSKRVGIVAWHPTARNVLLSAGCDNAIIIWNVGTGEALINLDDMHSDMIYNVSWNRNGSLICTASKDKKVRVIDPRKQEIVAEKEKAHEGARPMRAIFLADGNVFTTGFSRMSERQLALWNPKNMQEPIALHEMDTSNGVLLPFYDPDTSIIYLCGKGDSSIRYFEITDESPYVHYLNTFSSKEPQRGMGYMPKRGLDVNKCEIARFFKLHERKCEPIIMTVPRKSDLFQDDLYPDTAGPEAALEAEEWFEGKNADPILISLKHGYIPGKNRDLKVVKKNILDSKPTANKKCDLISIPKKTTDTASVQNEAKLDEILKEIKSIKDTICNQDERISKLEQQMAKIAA
UniProt P31943: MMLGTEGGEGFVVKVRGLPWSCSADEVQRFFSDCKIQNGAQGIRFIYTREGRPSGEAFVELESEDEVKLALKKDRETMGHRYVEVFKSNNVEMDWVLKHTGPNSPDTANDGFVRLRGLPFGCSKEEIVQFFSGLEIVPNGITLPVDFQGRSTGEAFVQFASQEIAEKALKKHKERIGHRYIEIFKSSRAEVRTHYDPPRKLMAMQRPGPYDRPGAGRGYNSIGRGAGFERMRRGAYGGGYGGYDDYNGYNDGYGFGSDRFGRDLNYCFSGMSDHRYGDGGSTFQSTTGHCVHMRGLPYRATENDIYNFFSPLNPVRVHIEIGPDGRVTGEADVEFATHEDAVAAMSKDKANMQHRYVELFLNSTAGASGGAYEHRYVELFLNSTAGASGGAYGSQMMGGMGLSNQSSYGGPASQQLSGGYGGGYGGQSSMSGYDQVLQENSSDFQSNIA
UniProt Q92598: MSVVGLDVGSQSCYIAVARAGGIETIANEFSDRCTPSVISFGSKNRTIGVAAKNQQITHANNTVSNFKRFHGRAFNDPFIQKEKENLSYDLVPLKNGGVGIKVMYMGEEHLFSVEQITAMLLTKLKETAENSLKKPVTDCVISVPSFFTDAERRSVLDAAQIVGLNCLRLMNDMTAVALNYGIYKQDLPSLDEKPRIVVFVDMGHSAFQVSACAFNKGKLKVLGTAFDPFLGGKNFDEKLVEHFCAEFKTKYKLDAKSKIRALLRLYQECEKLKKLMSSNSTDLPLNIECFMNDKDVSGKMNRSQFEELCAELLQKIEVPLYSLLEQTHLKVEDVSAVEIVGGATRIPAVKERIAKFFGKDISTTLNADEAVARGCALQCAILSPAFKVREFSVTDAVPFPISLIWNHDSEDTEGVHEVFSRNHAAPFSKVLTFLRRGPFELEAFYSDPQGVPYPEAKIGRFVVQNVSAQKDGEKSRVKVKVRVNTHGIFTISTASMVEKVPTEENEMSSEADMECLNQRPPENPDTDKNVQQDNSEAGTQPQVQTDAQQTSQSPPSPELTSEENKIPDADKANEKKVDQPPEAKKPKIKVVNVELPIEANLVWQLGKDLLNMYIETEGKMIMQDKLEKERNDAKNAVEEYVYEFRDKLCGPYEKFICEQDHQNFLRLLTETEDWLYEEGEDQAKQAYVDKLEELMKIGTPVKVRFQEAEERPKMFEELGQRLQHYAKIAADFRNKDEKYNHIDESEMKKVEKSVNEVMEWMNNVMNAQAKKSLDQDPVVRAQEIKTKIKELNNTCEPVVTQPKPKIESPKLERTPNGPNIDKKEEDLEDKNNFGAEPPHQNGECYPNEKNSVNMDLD
UniProt Q71RC2: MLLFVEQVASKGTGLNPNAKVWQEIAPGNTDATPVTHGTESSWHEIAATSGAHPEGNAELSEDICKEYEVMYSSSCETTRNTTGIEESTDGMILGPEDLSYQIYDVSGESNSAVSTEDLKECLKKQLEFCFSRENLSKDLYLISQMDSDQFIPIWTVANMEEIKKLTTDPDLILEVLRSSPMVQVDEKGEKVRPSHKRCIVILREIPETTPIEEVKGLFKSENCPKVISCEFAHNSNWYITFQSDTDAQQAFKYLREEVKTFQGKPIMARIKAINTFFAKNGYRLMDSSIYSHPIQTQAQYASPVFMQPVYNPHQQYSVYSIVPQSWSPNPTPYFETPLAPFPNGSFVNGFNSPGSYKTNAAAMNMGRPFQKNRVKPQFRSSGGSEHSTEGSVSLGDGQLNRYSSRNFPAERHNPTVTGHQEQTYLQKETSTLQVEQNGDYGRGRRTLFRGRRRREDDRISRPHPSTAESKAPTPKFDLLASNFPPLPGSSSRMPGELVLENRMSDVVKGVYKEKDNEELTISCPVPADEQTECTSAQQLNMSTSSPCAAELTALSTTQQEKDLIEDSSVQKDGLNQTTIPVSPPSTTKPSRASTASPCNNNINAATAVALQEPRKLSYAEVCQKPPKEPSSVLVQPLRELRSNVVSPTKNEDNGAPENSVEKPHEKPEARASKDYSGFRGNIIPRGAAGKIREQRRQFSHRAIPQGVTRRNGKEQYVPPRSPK
UniProt O43795: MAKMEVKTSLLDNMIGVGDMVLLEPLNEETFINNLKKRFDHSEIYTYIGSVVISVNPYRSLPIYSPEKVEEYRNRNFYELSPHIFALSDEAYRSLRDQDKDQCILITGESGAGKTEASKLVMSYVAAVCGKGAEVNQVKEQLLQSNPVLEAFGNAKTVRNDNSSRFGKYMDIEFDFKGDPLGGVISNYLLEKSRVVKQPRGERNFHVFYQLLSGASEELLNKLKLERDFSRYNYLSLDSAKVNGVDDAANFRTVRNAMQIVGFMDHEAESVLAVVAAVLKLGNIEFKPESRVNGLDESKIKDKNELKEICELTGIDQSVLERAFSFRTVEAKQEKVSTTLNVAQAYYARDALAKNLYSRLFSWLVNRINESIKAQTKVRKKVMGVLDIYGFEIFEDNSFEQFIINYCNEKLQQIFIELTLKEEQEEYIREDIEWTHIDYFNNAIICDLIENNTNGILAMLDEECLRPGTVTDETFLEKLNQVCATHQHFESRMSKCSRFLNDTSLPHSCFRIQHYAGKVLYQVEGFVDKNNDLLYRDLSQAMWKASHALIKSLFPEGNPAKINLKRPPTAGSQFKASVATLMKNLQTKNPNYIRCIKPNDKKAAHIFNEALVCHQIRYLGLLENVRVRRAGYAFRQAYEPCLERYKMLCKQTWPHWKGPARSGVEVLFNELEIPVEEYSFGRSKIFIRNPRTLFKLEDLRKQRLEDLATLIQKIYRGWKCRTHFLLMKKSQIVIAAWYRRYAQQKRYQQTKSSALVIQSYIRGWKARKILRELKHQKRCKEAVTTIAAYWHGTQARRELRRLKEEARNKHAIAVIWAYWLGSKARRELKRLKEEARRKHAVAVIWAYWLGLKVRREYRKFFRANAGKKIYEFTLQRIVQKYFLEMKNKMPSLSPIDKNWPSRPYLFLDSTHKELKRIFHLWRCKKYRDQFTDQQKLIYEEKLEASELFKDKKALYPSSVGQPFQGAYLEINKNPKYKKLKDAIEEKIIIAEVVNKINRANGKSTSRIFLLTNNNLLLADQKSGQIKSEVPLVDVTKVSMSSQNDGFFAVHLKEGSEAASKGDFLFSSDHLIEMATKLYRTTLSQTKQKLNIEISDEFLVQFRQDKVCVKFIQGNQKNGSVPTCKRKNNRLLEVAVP

Legend:
[1] = target: T1, FOSL2 (human (endogenous in Th17 cells)) (UniProt P15408); assay: affinity purification with mass spectrometry
T1 sequence: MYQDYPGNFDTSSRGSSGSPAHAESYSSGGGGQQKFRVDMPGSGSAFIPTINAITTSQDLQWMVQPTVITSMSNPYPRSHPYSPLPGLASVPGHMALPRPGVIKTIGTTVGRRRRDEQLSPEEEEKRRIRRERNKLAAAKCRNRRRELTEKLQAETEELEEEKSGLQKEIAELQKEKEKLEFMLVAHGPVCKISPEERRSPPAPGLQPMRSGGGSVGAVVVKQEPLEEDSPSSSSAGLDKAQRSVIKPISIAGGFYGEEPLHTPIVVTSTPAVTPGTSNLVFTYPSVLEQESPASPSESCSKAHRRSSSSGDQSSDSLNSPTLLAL

[2] = target: T2, FOSL1 (human (endogenous in Th17 cells)) (UniProt P15407); assay: affinity purification with mass spectrometry
T2 sequence: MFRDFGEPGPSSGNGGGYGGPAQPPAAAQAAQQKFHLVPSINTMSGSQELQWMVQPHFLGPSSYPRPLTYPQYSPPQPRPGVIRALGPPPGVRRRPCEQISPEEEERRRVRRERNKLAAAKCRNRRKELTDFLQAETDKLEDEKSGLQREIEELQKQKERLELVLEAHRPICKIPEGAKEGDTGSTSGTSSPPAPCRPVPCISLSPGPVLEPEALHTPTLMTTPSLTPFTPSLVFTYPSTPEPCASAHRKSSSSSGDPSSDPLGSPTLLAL

binding [1]: binds
Molecule: ADD1 (from UniProt P35611 1-737)

binding [1]: binds
Molecule: CAPZA2 (from UniProt P47755 1-286)

binding [1]: binds
Molecule: CD5 (from UniProt P06127 25-495)

binding [1]: binds
Molecule: CD48 (from UniProt P09326 27-220)

binding [1]: binds
Molecule: DBNL (from UniProt Q9UJU6 1-430)

binding [2]: binds | binding [1]: binds
Molecule: DHX15 (from UniProt O43143 1-795)

binding [1]: binds
Molecule: PPP1CB (from UniProt P62140 1-327)

binding [2]: binds | binding [1]: binds
Molecule: RUNX1 (from UniProt Q01196 1-453)

binding [2]: binds | binding [1]: binds
Molecule: SIRT-1 (from UniProt Q96EB6)

binding [2]: binds | binding [1]: binds
Molecule: eIF4E (from UniProt P06730 1-217)

binding [1]: binds
B6: MYO1D (protein, UniProt O94832 1-1006)
chain: MAEQESLEFGKADFVLMDTVSMPEFMANLRLRFEKGRIYTFIGEVVVSVNPYKLLNIYGRDTIEQYKGRELYERPPHLFAIADAAYKAMKRRSKDTCIVISGESGAGKTEASKYIMQYIAAITNPSQRAEVERVKNMLLKSNCVLEAFGNAKTNRNDNSSRFGKYMDINFDFKGDPIGGHINNYLLEKSRVIVQQPGERSFHSFYQLLQGGSEQMLRSLHLQKSLSSYNYIHVGAQLKSSINDAAEFRVVADAMKVIGFKPEEIQTVYKILAAILHLGNLKFVVDGDTPLIENGKVVSIIAELLSTKTDMVEKALLYRTVATGRDIIDKQHTEQEASYGRDAFAKAIYERLFCWIVTRINDIIEVKNYDTTIHGKNTVIGVLDIYGFEIFDNNSFEQFCINYCNEKLQQLFIQLVLKQEQEEYQREGIPWKHIDYFNNQIIVDLVEQQHKGIIAILDDACMNVGKVTDEMFLEALNSKLGKHAHFSSRKLCASDKILEFDRDFRIRHYAGDVVYSVIGFIDKNKDTLFQDFKRLMYNSSNPVLKNMWPEGKLSITEVTKRPLTAATLFKNSMIALVDNLASKEPYYVRCIKPNDKKSPQIFDDERCRHQVEYLGLLENVRVRRAGFAFRQTYEKFLHRYKMISEFTWPNHDLPSDKEAVKKLIERCGFQDDVAYGKTKIFIRTPRTLFTLEELRAQMLIRIVLFLQKVWRGTLARMRYKRTKAALTIIRYYRRYKVKSYIHEVARRFHGVKTMRDYGKHVKWPSPPKVLRRFEEALQTIFNRWRASQLIKSIPASDLPQVRAKVAAVEMLKGQRADLGLQRAWEGNYLASKPDTPQTSGTFVPVANELKRKDKYMNVLFSCHVRKVNRFSKVEDRAIFVTDRHLYKMDPTKQYKVMKTIPLYNLTGLSVSNGKDQLVVFHTKDNKDLIVCLFSKQPTHESRIGELVGVLVNHFKSEKRHLQVNVTNPVQCSLHGKKCTVSVETRLNQPQPDFTKNRSGFILSVPGN

Continued, molecule first:

Molecule: ABLIM1 (from UniProt O14639 1-778)
binding [1]: binds

Molecule: CORO1C (from UniProt Q9ULV4 1-474)
binding [1]: binds

Molecule: HNRNPH1 (from UniProt P31943 1-449)
binding [2]: binds | binding [1]: binds

Molecule: HSPH1 (from UniProt Q92598 1-858)
binding [2]: binds | binding [1]: binds

Molecule: LARP4 (from UniProt Q71RC2 1-724)
binding [2]: binds | binding [1]: binds

Molecule: MYO1B (from UniProt O43795 1-1136)
binding [1]: binds

Molecule: eIF2AK2 (from UniProt P19525 1-551)
binding [2]: binds | binding [1]: binds

Molecule: eIF3I (from UniProt Q13347 1-325)
binding [2]: binds | binding [1]: binds

Molecule: eIF4G1 (from UniProt Q04637 1-1599)
binding [2]: binds | binding [1]: binds

B1: NUFIP2 (protein, UniProt Q7Z417 1-695)
chain: MEEKPGQPQPQHHHSHHHPHHHPQQQQQQPHHHHHYYFYNHSHNHHHHHHHQQPHQYLQHGAEGSPKAQPKPLKHEQKHTLQQHQETPKKKTGYGELNGNAGEREISLKNLSSDEATNPISRVLNGNQQVVDTSLKQTVKANTFGKAGIKTKNFIQKNSMDKKNGKSYENKSGENQSVDKSDTIPIPNGVVTNNSGYITNGYMGKGADNDGSGSESGYTTPKKRKARRNSAKGCENLNIVQDKIMQQETSVPTLKQGLETFKPDYSEQKGNRVDGSKPIWKYETGPGGTSRGKPAVGDMLRKSSDSKPGVSSKKFDDRPKGKHASAVASKEDSWTLFKPPPVFPVDNSSAKIVPKISYASKVKENLNKTIQNSSVSPTSSSSSSSSTGETQTQSSSRLSQVPMSALKSVTSANFSNGPVLAGTDGNVYPPGGQPLLTTAANTLTPISSGTDSVLQDMSLTSAAVEQIKTSLFIYPSNMQTMLLSTAQVDLPSQTDQQNLGDIFQNQWGLSFINEPSAGPETVTGKSSEHKVMEVTFQGEYPATLVSQGAEIIPSGTEHPVFPKAYELEKRTSPQVLGSILKSGTTSESGALSLEPSHIGDLQKADTSSQGALVFLSKDYEIESQNPLASPTNTLLGSAKEQRYQRGLERNDSWGSFDLRAAIVYHTKEMESIWNLQKQDPKRIITYNEAMDSPDQ
binding [2]: binds | binding [1]: binds

B2: JUND (protein, UniProt P17535 1-347)
chain: METPFYGDEALSGLGGGASGSGGSFASPGRLFPGAPPTAAAGSMMKKDALTLSLSEQVAAALKPAAAPPPTPLRADGAPSAAPPDGLLASPDLGLLKLASPELERLIIQSNGLVTTTPTSSQFLYPKVAASEEQEFAEGFVKALEDLHKQNQLGAGAAAAAAAAAAGGPSGTATGSAPPGELAPAAAAPEAPVYANLSSYAGGAGGAGGAATVAFAAEPVPFPPPPPPGALGPPRLAALKDEPQTVPDVPSFGESPPLSPIDMDTQERIKAERKRLRNRIAASKCRKRKLERISRLEEKVKTLKSQNTELASTASLLREQVAQLKQKVLSHVNSGCQLLPQHQVPAY
binding [1]: binds

B3: ADD3 (protein, UniProt Q9UEY8 1-706)
chain: MSSDASQGVITTPPPPSMPHKERYFDRINENDPEYIRERNMSPDLRQDFNMMEQRKRVTQILQSPAFREDLECLIQEQMKKGHNPTGLLALQQIADYIMANSFSGFSSPPLSLGMVTPINDLPGADTSSYVKGEKLTRCKLASLYRLVDLFGWAHLANTYISVRISKEQDHIIIIPRGLSFSEATASNLVKVNIIGEVVDQGSTNLKIDHTGFSPHAAIYSTRPDVKCVIHIHTLATAAVSSMKCGILPISQESLLLGDVAYYDYQGSLEEQEERIQLQKVLGPSCKVLVLRNHGVVALGETLEEAFHYIFNVQLACEIQVQALAGAGGVDNLHVLDFQKYKAFTYTVAASGGGGVNMGSHQKWKVGEIEFEGLMRTLDNLGYRTGYAYRHPLIREKPRHKSDVEIPATVTAFSFEDDTVPLSPLKYMAQRQQREKTRWLNSPNTYMKVNVPEESRNGETSPRTKITWMKAEDSSKVSGGTPIKIEDPNQFVPLNTNPNEVLEKRNKIREQNRYDLKTAGPQSQLLAGIVVDKPPSTMQFEDDDHGPPAPPNPFSHLTEGELEEYKRTIERKQQGLEDAEQELLSDDASSVSQIQSQTQSPQNVPEKLEENHELFSKSFISMEVPVMVVNGKDDMHDVEDELAKRVSRLSTSTTIENIEITIKSPEKIEEVLSPEGSPSKSPSKKKKKFRTPSFLKKNKKKEKVEA
binding [1]: binds

B4: FOSL1 (protein, UniProt P15407 1-271)
chain: T2 sequence
binding [1]: no binding

B5: JUNB (protein, UniProt P17275 1-347)
chain: MCTKMEQPFYHDDSYTATGYGRAPGGLSLHDYKLLKPSLAVNLADPYRSLKAPGARGPGPEGGGGGSYFSGQGSDTGASLKLASSELERLIVPNSNGVITTTPTPPGQYFYPRGGGSGGGAGGAGGGVTEEQEGFADGFVKALDDLHKMNHVTPPNVSLGATGGPPAGPGGVYAGPEPPPVYTNLSSYSPASASSGGAGAAVGTGSSYPTTTISYLPHAPPFAGGHPAQLGLGRGASTFKEEPQTVPEARSRDATPPVSPINMEDQERIKVERKRLRNRLAATKCRKRKLERIARLEDKVKTLKAENAGLSSTAGLLREQVAQLKQKVMTHVSNGCQLLLGVKGHAF
binding [1]: binds
